# From publication PMC12040169 (PLOS Biology, 2025)
# Some of the results follow.
# Tested on: T1, CTL2-GFP (C. trachomatis L2/434/Bu, GFP-expressing)
# T1 construct: L2/434/Bu, GFP-expressing
# Design: species or system HeLa; Intracellular C. trachomatis growth in HeLa cells, bulk GFP fluorescence relative to DMSO
# Settings: bulk GFP, single well; 28.5 h, 10 µM; inhibitor
row,SMILES,% of control remaining [%]
1,O=C(COc1ccc(I)cc1)N/N=C/c1cccc([N+](=O)[O-])c1 [CBK262211],100
2,O=c1nc(-c2ccccc2Cl)oc2ccccc12 [CBK152263],163.584
3,Cc1nn(C)c2nc(NCc3ccc(C(=O)N4CCCC4)cc3)sc12 [CBK307190],100.966
4,Cc1ccc(NC(=O)CN2C(=O)c3ccccc3C2=O)c(C(=O)O)c1 [CBK262837],128.392
5,N#CCCN(Cc1ccco1)C(=O)c1ccc(NC2CC2)nc1 [CBK304922],81.8351
6,N#C/C(=C\c1ccc(C(=O)O)cc1)C(=O)NCC1CCCO1 (centres unmarked) [CBK263228],113.253
7,O=C(O)CN1C(=O)C2CCC(c3ccccc3)CC2C1=O (centres unmarked) [CBK286952],115.603
8,c1ccc(COc2cccc(CNCCN3CCOCC3)c2)cc1 [CBK278226C],120.095
9,CCOC(=O)Cc1csc(NC(=O)CSc2nc3cc4c(cc3cc2C)OCO4)n1 [CBK109112],99.9594
10,Cc1oc2c(CN(C)C)c(O)ccc2c(=O)c1-c1cnn(-c2ccccc2)c1 [CBK264496],100
11,O=C(NC(c1ccccc1)c1cccnc1)C1CCN(C(=O)CN2C(=O)c3ccccc3C2=O)CC1 (centres unmarked) [CBK060515],89.0269
12,Cc1cc(C)cc(Nc2c([N+](=O)[O-])nn(-c3cccc(Cl)c3)[n+]2[O-])c1 [CBK268254],75.1129
13,Cc1nnsc1[S+]([O-])c1ccc(Br)cc1 (centres unmarked) [CBK012927],114.749
14,CN(C)C(=O)c1nccnc1-c1ccc(COc2ccc3c(c2)OCO3)cc1 [CBK050829],109.577
15,Cc1cc(OCc2nc(-c3ccc(NC(=O)c4ccc5c(c4)OCO5)cc3)no2)ccc1Cl [CBK266673],103.772
16,Cc1nc(-c2nnc3ccc(Cl)nn23)c(Br)[nH]1 [CBK028706B],159.092
17,CCN(CC)C(=O)C1CCCN(C(=O)NCCc2c[nH]c3ccccc23)C1 (centres unmarked) [CBK156140],111.753
18,COc1ccc(C2=NN(c3ccc([N+](=O)[O-])cc3)C(=O)/C2=C/NCc2ccc3c(c2)OCO3)cc1 [CBK264598],100
19,CC(=O)c1ccc(NC(=O)NNS(=O)(=O)c2ccc(F)cc2)cc1 [CBK266944],125.842
20,CN1CCC(CNC(=O)Cn2ccc3ccc(F)cc32)(N(C)C)CC1 [CBK282569],109.286
21,CC(C)(CN)CN(Cc1cccc(Cl)c1)C(=O)Nc1ccc2c(c1)OCO2 [CBK002482C],119.688
22,CCC(=O)Nc1nc2ccccc2n1CCN1CCOCC1 [CBK261477],122.409
23,COc1ccc(CCN2CCC(CNC(=O)NCc3ccccc3)CC2)cc1OC [CBK051511T],132.973
24,Cc1cc(C)n(CC(=O)N2CCNCC2c2cccc(Cl)c2)n1 (centres unmarked) [CBK304116],120.132
25,CCC(=O)NC(Nc1cc(Cl)ccc1OC)(C(F)(F)F)C(F)(F)F [CBK261342],109.268
26,Cn1cc(-c2ccc(OCC3CCN(C(=O)OC(C)(C)C)CC3)cn2)cn1 [CBK173498],172.504

# Of the compounds above, these contain two or more sulfur atoms:
row,SMILES,% of control remaining [%]
9,CCOC(=O)Cc1csc(NC(=O)CSc2nc3cc4c(cc3cc2C)OCO4)n1 [CBK109112],99.9594
13,Cc1nnsc1[S+]([O-])c1ccc(Br)cc1 (centres unmarked) [CBK012927],114.749

# Exported bar-delimited: 2 of the compounds above.
row | SMILES | % of control remaining [%]
13 | Cc1nnsc1[S+]([O-])c1ccc(Br)cc1 (centres unmarked) [CBK012927] | 114.749
14 | CN(C)C(=O)c1nccnc1-c1ccc(COc2ccc3c(c2)OCO3)cc1 [CBK050829] | 109.577

# (next part)

row,SMILES,% of control remaining [%]
1,CC(C)Nc1cccnc1N1CCN(C(=O)c2ccncc2)CC1 [CBK016714],139.622
2,COc1ccc(CNc2cc(/C=C/c3ccccc3)nc3ccnn23)cc1 [CBK037075],127.372
3,CC(=O)NCCn1cc2c(n1)[C@H]1CN(C(=O)C(C)C)C[C@H]1CC2 [CBK284571],136.56
4,Cc1ccc2cc(CN3CCCC(N)CC3)c(N3CCOCC3)nc2c1 (centres unmarked) [CBK307693],165.025
5,CCOc1cc(/C=C2\SC(=N)NC2=O)ccc1OS(=O)(=O)c1ccc(NC(C)=O)cc1 [CBK265243],118.672
6,O=c1/c(=C/c2ccc(N3CCOCC3)cc2)sc2nc3cc(Br)cnc3n12 [CBK262574],112.037
7,CC(C)(C)C(=O)N1CCC(n2nc(C3CC3)ccc2=O)CC1 [CBK284242],131.997
8,N#Cc1ccc(NCC(=O)Nc2ccn(Cc3ccncc3)n2)cc1 [CBK306241],213.647
9,CC1CCC(N(Cc2nnc(C3CCC3)n2C)CC2CCCO2)CC1 (centres unmarked) [CBK305540],137.491
10,NS(=O)(=O)c1ccc(CCNC(=O)c2cc(Br)cnc2N2CCOCC2)cc1 [CBK076225],144.497
11,COc1ccc(/C=C(/NC(=O)c2cccc(Cl)c2)C(=O)Nc2ccccc2)cc1 [CBK263342],105.714
12,Cc1nccn1CCC1CCN(C(=O)CCCn2ccnc2)CC1 [CBK281988],141.788
13,Cc1nc2c(OCc3ccc(C#N)cc3)cccn2c1N(C)Cc1cccs1 [CBK147336],164.433
14,Nc1ncc(-c2cc(C(F)(F)F)cc(C(F)(F)F)c2)nc1NCc1ccco1 [CBK063689],206.56
15,COCCCn1c(=O)[nH]c2ncc(-c3cccc(C(=O)NCCO)c3)nc21 [CBK065042],113.868
16,CCn1cc(C(=O)N2CCC(C(=O)OC)CC2)c(=O)c2ccc(C)nc21 [CBK305848],107.245
17,O=C(NC1CCS(=O)(=O)C1)c1c[nH]c2ccccc2c1=O (centres unmarked) [CBK304295],128.174
18,CCc1nnc(SCc2cccc(C(=O)O)c2)o1 [CBK286993],118.582
19,Cc1cc(Cl)c(S(=O)(=O)Nc2cccc(Br)c2)cc1OCC(N)=O [CBK266535],148.201
20,COc1nc2ccn(CCC3CCOC3)c(=O)c2cc1C#N (centres unmarked) [CBK307343],124.417
21,COc1ccc(C(C)C)cc1-c1nccnc1NCc1ccc(S(C)(=O)=O)cc1 [CBK036903],135.221
22,COCC(=O)NCC1Cc2cc(F)cc(-c3ccc(C(C)=O)s3)c2O1 (centres unmarked) [CBK307310],122.183
23,c1ccc2c(c1)CCC(Oc1cncc(N3CCNCC3)n1)C2 (centres unmarked) [CBK172295G],111.247
24,Cc1ccc2oc(C(=O)N3CCC(Oc4cccnc4)CC3)cc2c1 [CBK281498],99.209
25,CC12CCC(=O)N1CCCN2 (centres unmarked) [CBK067102T],147.277
26,Cc1cc(C)nc(SCc2c(C)c(C)c(CSc3nc(C)cc(C)n3)c(C)c2C)n1 [CBK262070],102.798

row,SMILES,% of control remaining [%]
1,OCCCN1CCC(Oc2cncc(OCc3cccnc3)n2)C1 (centres unmarked) [CBK084465],120.065
2,O=C(NC(N1CCCCC1)C(Cl)(Cl)Cl)NC(N1CCCCC1)C(Cl)(Cl)Cl (centres unmarked) [CBK261020],115.329
3,Cc1nc(N)nc(NCC2CCN(C3CC3)C2)c1Cl (centres unmarked) [CBK306575],144.849
4,Cc1ccccc1OCc1nnc(SCc2c(Cl)cccc2[N+](=O)[O-])n1C [CBK265846],176.011
5,CCOC(=O)CN/C(=N/O)c1c(Cl)cccc1Cl [CBK022374],146.469
6,FC(F)(F)c1cccc(OC2CCCNC2)n1 (centres unmarked) [CBK113290],119.822
7,CC(=O)N1CC[C@@H]2NC(=O)[C@H]3C[C@H](NC(=O)c4ccc(F)c(Cl)c4)CN3C(=O)[C@H]21 [CBK289270],133.706
8,CC(Oc1ccc(Cl)cc1Cl)C(=O)NC(=S)Nc1ccc2c(c1)C(=O)N(C)C2=O (centres unmarked) [CBK267356],144.217
9,CCOC(=O)CN1CCN(S(=O)(=O)c2ccc(F)c(F)c2F)CC1 [CBK044345],136.834
10,O=C(c1ncoc1-c1ccc(F)cc1)N1CCN2CCCC2C1 (centres unmarked) [CBK282399],160.709
11,CCCn1c(C(=O)Nc2cccnc2)cc2c(=O)n(C)c(=O)n(C)c21 [CBK287838],122.661
12,CCCc1cc(C(=O)NCCCN)cc(CCC)c1OCc1ccccc1 [CBK001736C],54.0582
13,CC(C)C(=O)Nc1cccc(-c2cn3ccsc3n2)c1 [CBK096253],155.684
14,Cc1cc(C(=O)N2CCC3(CCN(Cc4ccccc4)C3)C2)n[nH]1 (centres unmarked) [CBK137092T],117.666
15,Nc1n[nH]c(SCC(=O)N2CCN(C(c3ccccc3)c3ccccc3)CC2)n1 [CBK267893],125.98
16,CCSCCN1CCC(Oc2nccnc2OCc2ccc(Br)cc2F)CC1 [CBK161087],120.072
17,Cc1ccc(S(=O)(=O)N(CC(=O)Nc2cccnc2)c2ccc(F)cc2)cc1 [CBK263968],137.239
18,C#CCNC(=O)N(C)C1CCN(c2ncnc3ccccc23)CC1 [CBK306109],96.9074
19,CC1CC(C)CN(C2CCN(Cc3ccccn3)CC2)C1 (centres unmarked) [CBK264639G],100
20,Cc1ccc(S(=O)(=O)NC[C@H]2O[C@@H](CC(=O)N3CCOCC3)[C@H](O)[C@@H]2O)cc1 [CBK288924],109.508
21,Cc1cccc(C(C)(C)C)c1NC(=O)NCCc1cccs1 [CBK044530],97.6455
22,CN(C)C(CNS(=O)(=O)c1cc2c(cc1Br)NC(=O)CO2)c1ccc(F)cc1 (centres unmarked) [CBK298296],131.151
23,Nc1ncnc(NNC(=O)CNC(=O)c2ccccc2C(F)(F)F)c1[N+](=O)[O-] [CBK267186],167.296
24,COc1ccc2[nH]cc(CCNC(=O)[C@@H]3Cc4c([nH]c5ccccc45)C4(CCN(Cc5ccc(F)cc5)C4)N3)c2c1 (some centres unmarked) [CBK066937],117.5
25,Cn1c(N2CC[C@H](O)C2)nc2cc(C(=O)NCCn3cccn3)ccc21 [CBK307328],139.282
